Measurements published in US11370801B2, “Pyrrolobenzodiazepine conjugates” (priority 2017, dated 2022).

Tested on: NCI-N87
Assay: Therapeutic index: MTD in rat / MED in mouse efficacy model
Assay type: in vivo
Description: The therapeutic index of each ADC/drug linker was calculated using the following equation: TI=MTD in rat (mg/kg)/MED in mouse efficacy model (mg/kg)

| SMILES | TI (therapeutic index) |
| --- | --- |
| COc1cc2c(cc1OCCCOc1cc3c(cc1OC)C(=O)N1CCC[C@H]1[C@H](O)N3C(=O)OCc1ccc(NC(=O)[C@H](C)NC(=O)[C@@H](NC(=O)CCOCCOCCOCCOCCOCCOCCOCCOCCNC(=O)CCN3C(=O)C=CC3=O)C(C)C)cc1)N=C[C@@H]1CCCN1C2=O [Compound 1, 4-((2S,5S)-37-(2,5-dioxo-2,5-dihydro-1H-pyrrol-1-yl)-5-isopropyl-2-methyl-4,7,35-trioxo-10,13,16,19,22,25,28,31-octaoxa-3,6,34-triazaheptatriacontanamido)benzyl(11S,11aS)-11-hydroxy-7-methoxy-8-(3-(((S)-7-methoxy-5-oxo-2,3,5,11a-tetrahydro-1H-pyrrolo[2,1-c][1,4]benzodiazepin-8-yl)oxy)propoxy)-5-oxo-2,3,11,11a-tetrahydro-1H-pyrrolo[2,1-c][1,4]benzodiazepine-10(5H)-carboxylate] | 4.2 |
| COc1cc2c(cc1OCc1cccc(COc3cc4c(cc3OC)C(=O)N3CCC[C@H]3[C@H](O)N4C(=O)OCc3ccc(NC(=O)[C@H](C)NC(=O)[C@@H](NC(=O)CCOCCOCCOCCOCCOCCOCCOCCOCCNC(=O)CCN4C(=O)C=CC4=O)C(C)C)cc3)c1)N=C[C@@H]1CCCN1C2=O [Compound 3, 4-((2S,5S)-37-(2,5-dioxo-2,5-dihydro-1H-pyrrol-1-yl)-5-isopropyl-2-methyl-4,7,35-trioxo-10,13,16,19,22,25,28,31-octaoxa-3,6,34-triazaheptatriacontanamido)benzyl (11S,11aS)-11-hydroxy-7-methoxy-8-((3-((((S)-7-methoxy-5-oxo-2,3,5,11a-tetrahydro-1H-benzo[e]pyrrolo[1,2-a][1,4]diazepin-8-yl)oxy)methyl)benzyl)oxy)-5-oxo-2,3,11,11a-tetrahydro-1H-benzo[e]pyrrolo[1,2-a][1,4]diazepine-10(5H)-carboxylate] | 4 |
| COc1cc2c(cc1OCCCOc1cc3c(cc1OC)C(=O)N1CCC[C@H]1[C@H](O)N3C(=O)OCc1ccc(NC(=O)[C@H](C)NC(=O)[C@@H](NC(=O)CCOCCOCCOCCOCCOCCOCCOCCOCCNC(=O)CCN3C(=O)C=CC3=O)C(C)C)cc1)N=C[C@@H]1CCCN1C2=O [Compound 2, 4-((2S,5S)-37-(2,5-dioxo-2,5-dihydro-1H-pyrrol-1-yl)-5-isopropyl-2-methyl-4,7,35-trioxo-10,13,16,19,22,25,28,31-octaoxa-3,6,34-triazaheptatriacontanamido)benzyl(11S,11aS)-11-hydroxy-7-methoxy-8-(3-(((S)-7-methoxy-5-oxo-2,3,5,11a-tetrahydro-1H-pyrrolo[2,1-c][1,4]benzodiazepin-8-yl)oxy)propoxy)-5-oxo-2,3,11,11a-tetrahydro-1H-pyrrolo[2,1-c][1,4]benzodiazepine-10(5H)-carboxylate] | 4 |
